Measurements from article PMC10683276.
These are yes or no findings as the source states them, for the method shown. Binding seen in cells or lysates may run through a third protein. Some binding calls cover weakened binding; strength is not graded here. Sequences can lack the tags named with a protein.

Protein sequences, listed by entry. Tags and fused reporters are not part of them. Residues count along the entry.
UniProt Q01097, residues 27-1482: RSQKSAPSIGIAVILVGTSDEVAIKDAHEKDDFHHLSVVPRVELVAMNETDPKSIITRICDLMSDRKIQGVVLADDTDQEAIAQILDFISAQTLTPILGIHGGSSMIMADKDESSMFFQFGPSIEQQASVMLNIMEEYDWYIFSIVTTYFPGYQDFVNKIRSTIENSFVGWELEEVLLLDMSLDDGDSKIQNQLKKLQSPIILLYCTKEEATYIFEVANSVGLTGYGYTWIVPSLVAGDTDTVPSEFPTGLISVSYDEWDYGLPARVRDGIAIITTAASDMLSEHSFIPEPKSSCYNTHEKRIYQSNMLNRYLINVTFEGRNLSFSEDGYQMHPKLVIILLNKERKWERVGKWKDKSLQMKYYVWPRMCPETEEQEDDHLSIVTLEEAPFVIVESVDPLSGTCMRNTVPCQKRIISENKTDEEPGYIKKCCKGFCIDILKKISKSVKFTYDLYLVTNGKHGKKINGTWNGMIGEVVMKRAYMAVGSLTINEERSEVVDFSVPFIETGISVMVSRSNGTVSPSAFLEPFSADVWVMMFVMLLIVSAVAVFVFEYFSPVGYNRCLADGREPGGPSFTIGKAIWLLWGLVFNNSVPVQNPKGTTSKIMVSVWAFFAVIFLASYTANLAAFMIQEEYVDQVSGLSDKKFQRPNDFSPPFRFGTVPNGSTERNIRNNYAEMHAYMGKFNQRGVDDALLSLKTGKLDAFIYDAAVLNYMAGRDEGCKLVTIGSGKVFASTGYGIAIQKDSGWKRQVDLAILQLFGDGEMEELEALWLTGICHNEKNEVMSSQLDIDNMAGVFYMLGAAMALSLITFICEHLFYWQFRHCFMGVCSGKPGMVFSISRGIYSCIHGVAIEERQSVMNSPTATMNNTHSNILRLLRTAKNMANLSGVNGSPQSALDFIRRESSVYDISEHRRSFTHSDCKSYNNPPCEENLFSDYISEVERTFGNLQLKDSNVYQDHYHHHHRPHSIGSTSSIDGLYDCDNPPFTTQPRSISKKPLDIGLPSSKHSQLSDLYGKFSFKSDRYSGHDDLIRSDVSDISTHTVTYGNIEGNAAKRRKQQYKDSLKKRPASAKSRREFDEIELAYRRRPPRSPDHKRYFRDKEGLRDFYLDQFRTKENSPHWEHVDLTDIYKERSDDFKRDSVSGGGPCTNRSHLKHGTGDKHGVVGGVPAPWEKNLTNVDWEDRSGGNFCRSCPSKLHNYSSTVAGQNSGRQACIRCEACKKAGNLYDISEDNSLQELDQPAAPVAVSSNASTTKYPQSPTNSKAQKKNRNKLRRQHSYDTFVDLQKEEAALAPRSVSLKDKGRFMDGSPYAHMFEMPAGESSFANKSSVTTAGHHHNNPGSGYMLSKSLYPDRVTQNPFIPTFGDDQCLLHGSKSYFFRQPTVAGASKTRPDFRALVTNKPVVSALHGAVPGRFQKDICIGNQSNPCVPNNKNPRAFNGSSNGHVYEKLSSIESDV
UniProt Q80XJ2: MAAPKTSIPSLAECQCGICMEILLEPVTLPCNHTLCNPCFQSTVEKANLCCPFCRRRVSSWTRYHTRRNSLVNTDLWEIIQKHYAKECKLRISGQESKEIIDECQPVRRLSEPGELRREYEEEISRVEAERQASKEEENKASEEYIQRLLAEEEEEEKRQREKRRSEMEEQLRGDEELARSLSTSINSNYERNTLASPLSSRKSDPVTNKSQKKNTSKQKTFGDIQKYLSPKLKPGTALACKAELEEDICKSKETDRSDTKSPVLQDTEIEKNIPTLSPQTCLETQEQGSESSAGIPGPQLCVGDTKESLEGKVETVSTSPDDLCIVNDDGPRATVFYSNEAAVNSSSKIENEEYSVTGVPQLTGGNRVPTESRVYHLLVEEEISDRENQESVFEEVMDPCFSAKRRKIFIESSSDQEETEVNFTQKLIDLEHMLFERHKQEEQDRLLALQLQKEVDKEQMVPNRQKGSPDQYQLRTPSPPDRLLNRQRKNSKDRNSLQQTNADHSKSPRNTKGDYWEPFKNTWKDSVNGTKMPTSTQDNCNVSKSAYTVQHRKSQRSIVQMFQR
UniProt Q9CQJ4: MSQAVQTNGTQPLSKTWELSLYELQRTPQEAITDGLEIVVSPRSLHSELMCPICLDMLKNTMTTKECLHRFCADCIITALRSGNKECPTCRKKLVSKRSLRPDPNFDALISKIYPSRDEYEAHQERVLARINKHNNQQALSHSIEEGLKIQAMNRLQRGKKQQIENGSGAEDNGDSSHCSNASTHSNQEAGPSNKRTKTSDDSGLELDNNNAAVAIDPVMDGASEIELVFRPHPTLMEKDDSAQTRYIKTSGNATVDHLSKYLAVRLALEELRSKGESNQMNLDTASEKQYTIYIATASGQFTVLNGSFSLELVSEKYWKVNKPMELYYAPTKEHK

T1: UBE2K-GFP (ubiquitin conjugating enzyme E2 K fused to GFP) (UniProt P61087)
T1 sequence: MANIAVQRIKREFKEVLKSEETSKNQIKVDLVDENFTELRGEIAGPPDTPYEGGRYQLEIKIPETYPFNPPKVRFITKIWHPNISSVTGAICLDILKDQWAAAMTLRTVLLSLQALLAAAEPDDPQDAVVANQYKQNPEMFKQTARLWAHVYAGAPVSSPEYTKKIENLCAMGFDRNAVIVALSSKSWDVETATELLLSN

B1: RNF138, endogenous in N2a cells (enzyme, UniProt Q9CQE0 1-245)
chain: MSEELSAATSYTEDDFYCPVCQEVLKTPVRTAACQHVFCRKCFLTAMRESGIHCPLCRGSVTRRERACPERALDLENIMRRFSGSCRCCSKKIKFYRMRHHYKSCKKYQDEYGVSSVIPNFKISQDSVRSSNRSETSASDNTETYQEDTSSSGHPTFKCPLCQESNFTRQRLLDHCNSNHLFQIVPVTCPICVSLPWGDPSQITRNFVSHLNQRHQFDYGEFVNLQLDEETQYQTAVEESFQVNM

Each molecule was assayed against T1, UBE2K-GFP (ubiquitin conjugating enzyme E2 K fused to GFP) (assay: co-IP; 500 ug of protein from lysates of N2a cells transfected with vector or UBE2K-GFP; precipitated with anti-GFP antibody or nonspecific IgG; blotted for GluN2B, RNF168, RNF138, RNF2 and UBE2K).

Row | Molecule | binding
1 | GluN2B subunit of NMDA receptor, endogenous in N2a cells (from UniProt Q01097 27-1482) | binds
2 | RING finger family 168 (RNF168), endogenous in N2a cells (from UniProt Q80XJ2 1-565) (enzyme) | binds
3 | RNF2, endogenous in N2a cells (from UniProt Q9CQJ4 1-336) (enzyme) | no binding
4 | B1 | binds
